# The campaign covered roughly 200,000 compounds. About 25 (0.01%) were called active. Inconclusive means that the source gave no clear call. Such entries were picked first, then a sample of the others. The call rests on the fitted dose curve; in most records, active means well fitted inhibition curve with a large enough effect in the signal ratio, with a control signal flat (not every such curve was filed as active); inconclusive means small, poorly fitted or top-dose-only effect, or effect the other way, or a change in a side signal; inactive means flat fitted curve, though single readings scatter; the % refers to the signal ratio. A potency beside an inconclusive call is a rough fit, not a confirmed value.
# Experiment: qHTS Assay for Modulators of Lamin A Splicing
# Details: HeLa LMNA splicing GFP/RFP minigene ratio, 48 h; ratio change, negative = inhibition: at 46.1 µM (top of the series) unless noted
# Summary of the method: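 Read-out is the ratio of GFP to DsRed2 object intensity, acquired by 488 nm laser-scanning cytometry on HeLa lamin A-EGFP minigene reporter cells. Compound incubation 48 hrs at 37 °C in Opti-MEM with 2% FBS; DMSO 0.5% final.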
# On the % scale 0 is the no-effect control and ±100 the full control effect; potency means the concentration at half of the fitted maximal effect.
SMILES,"ratio change, negative = inhibition",Potency
O=C(c1ccc2ccccc2c1)N1CCN(S(=O)(=O)/C=C/c2ccccc2)CC1,inconclusive: -38.1% [at 46 µM],–
COc1c(Br)cc(Br)cc1/C=N/NC(=O)c1ccncc1,inconclusive: 0.782% [at 46 µM],–
COC(=O)c1sccc1NC(=O)c1c(-c2ccccc2)noc1C,–,"inconclusive: 35.5 µM [fluorescent, single point]"
O=C1C2C3C=CC(C3)C2C(=O)N1c1ccc(-c2nc3ccccc3c(=O)o2)cc1 (stereo not given),inconclusive: -2.75% [at 46 µM],–
O=C(Nc1ccc(Cl)cc1)NC1CCCC1Cc1ccco1 (stereo not given),–,"inconclusive: 35.5 µM [falling, single point]"
CN(C)c1ccc(CNC(=O)CCCN2C(=O)c3cccnc3Oc3ccc(Cl)cc32)cc1,inactive,–
CC(=O)C[C@H](c1ccc([N+](=O)[O-])cc1)c1c(O)c2ccccc2oc1=O,inactive,–
CCOc1ccccc1N1CSC2=C(C#N)C(c3c(OC)ccc4ccccc34)CC(=O)N2C1 (stereo not given),inactive,–
CC(O)[C@@H](O)[C@H]1CNc2nc(N)[nH]c(=O)c2N1 (stereo not given in full),inconclusive: -18.6%,–
COc1ccc2nc(NC(=O)CSc3nc4cccnc4n3C)sc2c1,inconclusive: 9.13%,–
Cc1ccc(N2C(=O)CSCC2=O)cc1,inactive,–
Cc1cccc(C(=O)NC2CCN(CC(=O)Nc3ccc4c(c3)OCO4)CC2)c1,inconclusive: 15.4% [at 46 µM],–
COc1ccc(-c2cn3cccnc3n2)cc1NC(=O)c1cc(OC)c(OC)c(OC)c1,–,"inconclusive: 28.2 µM [inhibitor, single point]"
Cc1cc(Nc2ccc(F)cc2F)nc(-n2nc(C)cc2C)n1,inconclusive: -8.85% [at 46 µM],–
CCOC(=O)c1c(-c2ccc(C)o2)csc1NC(=S)NC(=O)N(C)C,inconclusive: 1.28%,–
O=C(CSc1nc(=O)n(CCN2CCOCC2)c2c1CCC2)Nc1ccc(Cl)c(Cl)c1,inconclusive: -20.5% [at 46 µM],–
CC(C)CNC(=O)CC(=O)N/N=C/c1ccc(Br)cc1,inactive,–
CCc1ccc(CN(C)CC(=O)Nc2sccc2C#N)cc1,–,"inconclusive: 35.5 µM [falling, single point]"
COc1ccc(Cc2nnc(N)s2)cc1,–,"inconclusive: 35.5 µM [cytotoxic, single point]"
COc1ccc(NC(=O)c2cc3cc(C)ccc3[nH]2)cc1,inconclusive: 29.2% [at 46 µM],–
CC1=C(C#N)C(=O)NC(=O)/C1=C/c1ccc(-c2ccc(S(N)(=O)=O)cc2)o1,inconclusive: -22.7% [at 46 µM],–
Cc1c(C(=O)N2CCCCCC2)c(S(=O)(=O)NCc2ccccc2)c(C)n1C,inconclusive: -5.26% [at 46 µM],–

SMILES,"ratio change, negative = inhibition",Potency
Cc1nnc2c3ccccc3c(-c3ccc(O)cc3)nn12,inactive,–
CCOc1ccccc1NC(=O)Cn1c(=O)sc2ccccc21,inconclusive: -2.73% [at 46 µM],–
CCCCN(CCCC)C1=Nc2ccccc2N/C1=C(/C#N)C(=O)OCC,inconclusive: -26.9%,–
CC[n+]1c(/C=C2\Sc3ccccc3N2C)ccc2cccc(C)c21,–,"inconclusive: 6.31 µM [activator, full curve]"
CC(=O)N1CCc2c(sc3c2c(=O)n(-c2ccccc2)c(=O)n3CC(=O)Nc2cc(C)cc(C)c2)C1,inconclusive: -20.3% [at 46 µM],–
Cc1ccc(-n2nc(C(=O)N3CCN(c4ccccc4F)CC3)c(=O)n(C)c2=O)cc1,inconclusive: -3.09% [at 46 µM],–
Nc1ncn([C@@H]2O[C@H](CO)[C@@H](O)[C@H]2O)c(=O)n1,inconclusive: 12.5%,–
Nc1ccc(N2CCN(C(=O)c3cccs3)CC2)cc1,–,"inconclusive: 11.2 µM [inhibitor, partial curve]"
N#CCCN1CCN(S(=O)(=O)c2ccc(S(=O)(=O)NC3CCCCC3)cc2)CC1,inconclusive: -10.5%,–
O=C(CSc1nc2ccccc2n1Cc1cccc(F)c1)NCc1ccccc1,inactive,–
O=C(CN(C(=O)CSc1nnc(COc2ccccc2)o1)c1ccc(F)cc1)NC1CCCC1,–,"inconclusive: 15.8 µM [falling, single point]"
COc1cc(C(=O)NNC(=S)NC(=O)c2ccc(Cl)cc2)cc(OC)c1OC,inconclusive: -42.3%,–
Cc1cccc(-c2n[nH]c(=S)n2/N=C/c2ccc(C)o2)c1,inconclusive: 4.32%,–
CCCCNC(=O)Nc1ccccc1C(=O)NCCC,inactive,–
CCSC(=N)N,inconclusive: -15.9%,–
Cc1ccc(-n2c(=O)c3ccccc3n(CC(=O)C(C)(C)C)c2=O)cc1,inconclusive: 15.2% [at 46 µM],–
COCCn1c(=O)c(-c2cccs2)nc2cnc(OC)nc21,inactive,–
CN(Cc1ccco1)c1ncnc2ccc(-c3cccc(C#N)c3)cc12,inactive,–
CCc1c(C)nc2ncnn2c1N1CCCC(C(=O)Nc2cc(F)ccc2C)C1 (stereo not given),–,"inconclusive: 22.4 µM [falling, single point]"
COc1cc(C(=O)N/N=C/c2sccc2C)cc(OC)c1OC,inconclusive: 0.657% [at 46 µM],–
CCc1cc2ccccc2nc1SCC(=O)Nc1cc(C)on1,inactive,–
COc1ccc(Nc2nc(-c3ccc(OC)cc3)cs2)cc1,inconclusive: 16.4% [at 46 µM],–

SMILES,"ratio change, negative = inhibition",Potency
CC(=O)Nc1ccc(NS(=O)(=O)c2c(C(=O)N3CCCCCC3)c(C)n(C)c2C)cc1,inactive,–
CCOC(=O)c1c(CC(C)C)csc1NC(=O)CCl,inactive,–
Cc1ccccc1C(=O)c1c[nH]c(C(=O)NCc2ccco2)c1,–,"inconclusive: 5.01 µM [inhibitor, partial curve, poor fit]"
CCc1ccc(OCCNC(=O)c2ccccc2SCc2ccccc2)cc1,inconclusive: -29%,–
CCOC(=O)c1cc(-c2nnc(SCC(=O)Nc3ccc(F)cc3)o2)c(C)nc1C,inactive,–
Cc1cccc(NC(=O)CN2C(=O)N/C(=C\c3cccn3-c3cccc(C(=O)O)c3)C2=O)c1,inactive,–
O=C(NCC(c1ccc2c(c1)OCO2)N1CCN(c2ccccc2)CC1)c1ccc(F)c(F)c1 (stereo not given),inconclusive: -41.4% [at 46 µM],–
COc1ccc(NC(=S)NCc2cccs2)c(OC)c1,inconclusive: 0.967%,–
CC1(c2ccc(OCC#N)cc2)C=C(c2ccc(OCC#N)cc2)n2nc(C(F)(F)F)nc2N1 (stereo not given),–,"inconclusive: 15.8 µM [activator, partial curve]"
Cn1cccc1-c1cc2n(n1)CCC(=O)N2CCCC(=O)NCc1cccc(Cl)c1,inactive,–
CCN(CC)S(=O)(=O)c1cccc(-c2n[nH]c(=S)n2/N=C/c2ccc(OC)cc2)c1,inconclusive: 11.6%,–
Nc1nonc1NC(=O)CSc1ncccc1C(=O)O,inactive,–
O=C(CSc1cccc2cccnc12)Nc1cccc(S(=O)(=O)N2CCOCC2)c1,inactive,–
c1cncc(-c2noc(-c3cccc4ccccc34)n2)c1,inactive,–
Cc1cc(C)cc(-n2ccnc2SCC(=O)Nc2ccccc2F)c1,inactive,–
CC(Nc1n[nH]c(=S)[nH]c1=O)C(=O)OCc1ccccc1 (stereo not given),inactive,–
Cc1cccc(-n2ncc3c(NNC(=O)c4ccccc4Cl)ncnc32)c1,inactive,–
COc1ccc(-c2ccc(=O)n(CC(=O)Nc3cc(OC)ccc3OC)n2)cc1,inactive,–
COc1ccc(CCN2C(=O)CC(N3CCN(c4ccccn4)CC3)C2=O)cc1OC (stereo not given),inactive,–
CC(C)(C)n1nnnc1C(c1cccc(C#N)c1)N1CCCc2ccccc21 (stereo not given),inconclusive: 12.5%,–
Cc1ccnc(SCC(=O)O)n1,inactive,–
COC(=O)c1ccc(CSc2n[nH]c(C)n2)o1,inactive,–

# Single records, as listed above.
# CCc1ccc(OCCNC(=O)c2ccccc2SCc2ccccc2)cc1 is listed as ratio change, negative = inhibition: inconclusive: -29%
# COc1ccc(-c2ccc(=O)n(CC(=O)Nc3cc(OC)ccc3OC)n2)cc1 is listed as ratio change, negative = inhibition: inactive

# (more compounds)

SMILES,"ratio change, negative = inhibition",Potency
COc1ccc(CN=Cc2[nH]c3ccc(Br)c(Cl)c3c2O)cc1,inactive,–
Cc1ccc(C(=O)NCc2ccc(Cl)c(Cl)c2)o1,inconclusive: 13.3%,–
c1ccc(Sc2ncnc3c2oc2ccccc23)cc1,–,"inconclusive: 14.1 µM [inhibitor, single point]"
Cc1ccc2[nH]c3c(N4CCN(Cc5ccc6c(c5)OCO6)CC4)ncnc3c2c1,inconclusive: -30.9%,–
CN(C)c1ccc(-c2cncnc2N(C)Cc2ccco2)cc1,inconclusive: -11.2%,–
Cc1ccc(-c2noc(CCC(=O)NCc3ccco3)n2)cc1,inactive,–
COc1ccc(CCn2c(SCC(=O)Nc3cc(C)on3)nc3ccsc3c2=O)cc1OC,inactive,–
COc1ccccc1NC(=O)N1C2CCCC1CC(NC(=O)c1ccccc1)C2 (stereo not given),inconclusive: 25% [at 46 µM],–
COc1ccc(CNC(=O)c2c(O)c3cccc4c3n(c2=O)CCC4)cc1,inconclusive: 3.74%,–
O=C(/C=C/c1c(F)cccc1Cl)Nc1ccncc1,inconclusive: -23.3%,–
CCc1ccc(O)c(N=Cc2ccccc2O)c1,inactive,–
CN(C)c1cc[n+](CC(=O)Nc2ccc(Oc3ccccc3)cc2)cc1,inconclusive: -32.7% [at 46 µM],–
CC(Cn1cnc2ccccc21)C(=O)O (stereo not given),inactive,–
COc1cc2[nH]c(=O)n(Cc3ccc(C(=O)NC4CCN(Cc5ccccc5)CC4)cc3)c(=O)c2cc1OC,inconclusive: -28.2% [at 46 µM],–
O=C(COc1cccc2ccccc12)NNC(=O)c1cnccn1,inactive,–
Cc1nn(-c2ccc(F)cc2F)c2c1-c1nc(N3CCCC3)ncc1CC2,–,"inconclusive: 35.5 µM [fluorescent, single point]"
CCc1ccccc1N1C(=O)N(CC(=O)c2ccc(OC)cc2)c2ccccc2S1(=O)=O,inactive,–
Cc1ccc(N2C(S)=C(C#N)C(=O)NC23CCCCC3)cc1,inconclusive: -5.58%,–
CCCNC(=O)c1cnc2c(-c3ccc(OCC)c(OCC)c3)c(C)nn2c1-c1ccccc1,inconclusive: 4.55% [at 46 µM],–

# A second format for some results above:
SMILES	ratio change, negative = inhibition	Potency
Nc1nonc1NC(=O)CSc1ncccc1C(=O)O	inactive	–
O=C(CSc1cccc2cccnc12)Nc1cccc(S(=O)(=O)N2CCOCC2)c1	inactive	–
c1cncc(-c2noc(-c3cccc4ccccc34)n2)c1	inactive	–
Cc1cc(C)cc(-n2ccnc2SCC(=O)Nc2ccccc2F)c1	inactive	–
CC(Nc1n[nH]c(=S)[nH]c1=O)C(=O)OCc1ccccc1 (stereo not given)	inactive	–
Cc1cccc(-n2ncc3c(NNC(=O)c4ccccc4Cl)ncnc32)c1	inactive	–
COc1ccc(-c2ccc(=O)n(CC(=O)Nc3cc(OC)ccc3OC)n2)cc1	inactive	–
COc1ccc(CCN2C(=O)CC(N3CCN(c4ccccn4)CC3)C2=O)cc1OC (stereo not given)	inactive	–
CC(C)(C)n1nnnc1C(c1cccc(C#N)c1)N1CCCc2ccccc21 (stereo not given)	inconclusive: 12.5%	–
Cc1ccnc(SCC(=O)O)n1	inactive	–
COC(=O)c1ccc(CSc2n[nH]c(C)n2)o1	inactive	–
COc1ccc(CN=Cc2[nH]c3ccc(Br)c(Cl)c3c2O)cc1	inactive	–
Cc1ccc(C(=O)NCc2ccc(Cl)c(Cl)c2)o1	inconclusive: 13.3%	–
c1ccc(Sc2ncnc3c2oc2ccccc23)cc1	–	inconclusive: 14.1 µM [inhibitor, single point]
Cc1ccc2[nH]c3c(N4CCN(Cc5ccc6c(c5)OCO6)CC4)ncnc3c2c1	inconclusive: -30.9%	–
CN(C)c1ccc(-c2cncnc2N(C)Cc2ccco2)cc1	inconclusive: -11.2%	–
Cc1ccc(-c2noc(CCC(=O)NCc3ccco3)n2)cc1	inactive	–
COc1ccc(CCn2c(SCC(=O)Nc3cc(C)on3)nc3ccsc3c2=O)cc1OC	inactive	–
COc1ccccc1NC(=O)N1C2CCCC1CC(NC(=O)c1ccccc1)C2 (stereo not given)	inconclusive: 25% [at 46 µM]	–
CN(C)c1cc[n+](CC(=O)Nc2ccc(Oc3ccccc3)cc2)cc1	inconclusive: -32.7% [at 46 µM]	–
CC(Cn1cnc2ccccc21)C(=O)O (stereo not given)	inactive	–
COc1cc2[nH]c(=O)n(Cc3ccc(C(=O)NC4CCN(Cc5ccccc5)CC4)cc3)c(=O)c2cc1OC	inconclusive: -28.2% [at 46 µM]	–
O=C(COc1cccc2ccccc12)NNC(=O)c1cnccn1	inactive	–
Cc1nn(-c2ccc(F)cc2F)c2c1-c1nc(N3CCCC3)ncc1CC2	–	inconclusive: 35.5 µM [fluorescent, single point]
CCc1ccccc1N1C(=O)N(CC(=O)c2ccc(OC)cc2)c2ccccc2S1(=O)=O	inactive	–
Cc1ccc(N2C(S)=C(C#N)C(=O)NC23CCCCC3)cc1	inconclusive: -5.58%	–
CCCNC(=O)c1cnc2c(-c3ccc(OCC)c(OCC)c3)c(C)nn2c1-c1ccccc1	inconclusive: 4.55% [at 46 µM]	–

# From PubChem BioAssay AID1487 (National Center for Advancing Translational Sciences (NCATS), 2009)
